Strings that start with PEPTIDE1 are HELM notation: dots part the residues, brackets hold end groups and non-standard residues.

The data set can be described thus: general procedure: peptide synthesis; 2-chlorotrityl polystyrene. The settings on record: whole synthesis, scale 0.25 mmol.
As to “PEPTIDE1{F.[dW].A.T.F.P}$PEPTIDE1,PEPTIDE1,1:R1-6:R2$$$V2.0”, the isolated mass is recorded as 14.4 mg.
Regarding “PEPTIDE1{F.[dW].F.T.F.P}$PEPTIDE1,PEPTIDE1,1:R1-6:R2$$$V2.0”, the isolated mass is 14 mg.
With “PEPTIDE1{F.[dW].L.T.F.P}$PEPTIDE1,PEPTIDE1,1:R1-6:R2$$$V2.0” the figure was 23 mg; with “PEPTIDE1{F.[dW].Y.T.F.P}$PEPTIDE1,PEPTIDE1,1:R1-6:R2$$$V2.0”, 13 mg.

For the origin of these results see patent publication US5811512A (The Trustees of the University of Pennsylvania, priority 1996, dated 1998).
